Experimental data as given in doi:10.1101/728410.
Results are given in words; binding and its absence hold for the method and conditions named. Binding seen in cells or lysates may run through a third protein. Here binding means that the protein was enriched with, or labelled near, the bait; the list need not be complete.

By UniProt entry, the sequences of proteins in these tests, tags left out. Where a name states a change or a piece, a line headed by the entry shows the natural chain unless it says otherwise. Chains listed by the source or under a name are the forms on record and can include a tag or linker.
shank2 (Q9QX74, form named): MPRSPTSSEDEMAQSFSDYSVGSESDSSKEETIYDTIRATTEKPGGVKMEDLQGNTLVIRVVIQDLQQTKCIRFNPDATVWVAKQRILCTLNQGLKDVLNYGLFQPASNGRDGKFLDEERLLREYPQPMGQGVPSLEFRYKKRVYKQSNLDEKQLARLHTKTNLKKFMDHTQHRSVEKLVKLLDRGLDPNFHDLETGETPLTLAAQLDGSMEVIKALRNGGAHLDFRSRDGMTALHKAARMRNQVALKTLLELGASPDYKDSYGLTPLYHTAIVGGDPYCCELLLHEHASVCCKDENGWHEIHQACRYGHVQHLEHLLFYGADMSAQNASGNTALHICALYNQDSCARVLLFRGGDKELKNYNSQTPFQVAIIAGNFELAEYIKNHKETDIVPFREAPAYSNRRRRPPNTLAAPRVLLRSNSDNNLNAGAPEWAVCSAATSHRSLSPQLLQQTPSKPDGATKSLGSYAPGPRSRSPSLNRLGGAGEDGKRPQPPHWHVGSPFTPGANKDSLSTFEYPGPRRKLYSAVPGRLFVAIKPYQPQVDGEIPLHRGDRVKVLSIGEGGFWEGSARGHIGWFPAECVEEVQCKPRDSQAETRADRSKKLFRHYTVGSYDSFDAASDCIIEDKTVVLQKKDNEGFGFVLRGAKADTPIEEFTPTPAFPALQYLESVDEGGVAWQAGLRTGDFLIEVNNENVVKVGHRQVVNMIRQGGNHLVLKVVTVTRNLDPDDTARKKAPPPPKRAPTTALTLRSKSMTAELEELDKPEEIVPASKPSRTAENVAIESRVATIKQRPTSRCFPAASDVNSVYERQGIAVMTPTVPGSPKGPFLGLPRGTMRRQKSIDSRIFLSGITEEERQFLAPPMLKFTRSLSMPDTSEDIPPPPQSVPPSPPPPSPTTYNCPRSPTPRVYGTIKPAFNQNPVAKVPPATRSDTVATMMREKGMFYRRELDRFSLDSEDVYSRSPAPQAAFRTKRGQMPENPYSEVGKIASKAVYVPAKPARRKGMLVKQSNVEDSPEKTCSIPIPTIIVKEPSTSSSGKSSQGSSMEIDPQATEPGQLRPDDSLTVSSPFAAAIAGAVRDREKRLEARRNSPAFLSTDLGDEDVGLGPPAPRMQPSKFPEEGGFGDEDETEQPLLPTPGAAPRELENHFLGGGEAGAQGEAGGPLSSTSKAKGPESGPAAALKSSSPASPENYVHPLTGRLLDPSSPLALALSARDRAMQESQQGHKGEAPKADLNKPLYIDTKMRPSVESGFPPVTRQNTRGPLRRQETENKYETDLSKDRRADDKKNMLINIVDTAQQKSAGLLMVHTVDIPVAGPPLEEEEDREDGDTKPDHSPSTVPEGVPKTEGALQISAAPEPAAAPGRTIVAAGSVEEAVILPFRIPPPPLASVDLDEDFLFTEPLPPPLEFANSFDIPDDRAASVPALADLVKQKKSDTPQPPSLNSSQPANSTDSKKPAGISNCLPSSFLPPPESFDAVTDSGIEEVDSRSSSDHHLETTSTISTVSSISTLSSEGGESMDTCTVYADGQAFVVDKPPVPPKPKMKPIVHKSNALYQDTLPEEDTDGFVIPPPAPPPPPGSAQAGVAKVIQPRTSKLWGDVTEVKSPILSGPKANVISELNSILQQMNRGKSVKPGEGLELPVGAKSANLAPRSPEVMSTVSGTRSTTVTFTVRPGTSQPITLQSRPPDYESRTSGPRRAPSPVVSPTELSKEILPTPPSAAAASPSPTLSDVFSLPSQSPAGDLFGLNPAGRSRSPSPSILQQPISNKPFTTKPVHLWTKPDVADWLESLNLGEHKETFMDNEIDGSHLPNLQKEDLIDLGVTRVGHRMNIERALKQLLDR
UniProt Q15075: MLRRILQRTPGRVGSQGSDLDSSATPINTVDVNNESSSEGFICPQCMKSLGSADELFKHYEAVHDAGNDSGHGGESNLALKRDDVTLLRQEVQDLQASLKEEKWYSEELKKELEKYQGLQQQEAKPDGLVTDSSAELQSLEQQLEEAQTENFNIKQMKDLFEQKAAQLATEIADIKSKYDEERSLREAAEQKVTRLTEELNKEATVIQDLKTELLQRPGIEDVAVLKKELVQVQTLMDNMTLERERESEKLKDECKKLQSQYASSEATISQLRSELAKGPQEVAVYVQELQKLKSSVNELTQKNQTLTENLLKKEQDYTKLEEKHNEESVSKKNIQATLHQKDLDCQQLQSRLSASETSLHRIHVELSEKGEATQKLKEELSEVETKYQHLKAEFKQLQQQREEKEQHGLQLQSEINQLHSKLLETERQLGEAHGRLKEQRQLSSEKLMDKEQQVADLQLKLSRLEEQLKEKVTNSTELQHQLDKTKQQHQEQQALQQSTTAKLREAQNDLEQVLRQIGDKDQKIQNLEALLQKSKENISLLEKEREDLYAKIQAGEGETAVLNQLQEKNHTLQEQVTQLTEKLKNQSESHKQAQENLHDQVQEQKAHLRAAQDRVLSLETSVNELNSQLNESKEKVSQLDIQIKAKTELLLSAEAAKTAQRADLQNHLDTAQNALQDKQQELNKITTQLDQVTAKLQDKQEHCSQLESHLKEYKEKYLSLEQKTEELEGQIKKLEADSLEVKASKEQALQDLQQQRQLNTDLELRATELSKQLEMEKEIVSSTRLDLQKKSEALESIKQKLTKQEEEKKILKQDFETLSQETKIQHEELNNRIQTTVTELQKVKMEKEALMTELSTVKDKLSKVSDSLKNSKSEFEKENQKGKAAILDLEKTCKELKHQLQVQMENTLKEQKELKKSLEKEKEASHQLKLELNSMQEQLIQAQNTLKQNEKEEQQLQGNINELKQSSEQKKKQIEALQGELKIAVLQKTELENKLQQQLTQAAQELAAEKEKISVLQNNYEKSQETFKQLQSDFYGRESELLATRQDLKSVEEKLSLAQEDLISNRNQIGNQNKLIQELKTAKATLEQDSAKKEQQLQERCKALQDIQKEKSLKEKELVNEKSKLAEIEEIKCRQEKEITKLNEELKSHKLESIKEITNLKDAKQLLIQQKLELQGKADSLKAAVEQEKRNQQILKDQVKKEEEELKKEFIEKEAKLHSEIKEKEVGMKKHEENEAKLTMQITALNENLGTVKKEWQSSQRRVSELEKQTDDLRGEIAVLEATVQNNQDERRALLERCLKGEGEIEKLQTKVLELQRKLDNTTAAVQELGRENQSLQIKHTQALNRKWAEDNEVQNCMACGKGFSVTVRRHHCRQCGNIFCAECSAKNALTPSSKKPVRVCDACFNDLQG
UniProt Q05397: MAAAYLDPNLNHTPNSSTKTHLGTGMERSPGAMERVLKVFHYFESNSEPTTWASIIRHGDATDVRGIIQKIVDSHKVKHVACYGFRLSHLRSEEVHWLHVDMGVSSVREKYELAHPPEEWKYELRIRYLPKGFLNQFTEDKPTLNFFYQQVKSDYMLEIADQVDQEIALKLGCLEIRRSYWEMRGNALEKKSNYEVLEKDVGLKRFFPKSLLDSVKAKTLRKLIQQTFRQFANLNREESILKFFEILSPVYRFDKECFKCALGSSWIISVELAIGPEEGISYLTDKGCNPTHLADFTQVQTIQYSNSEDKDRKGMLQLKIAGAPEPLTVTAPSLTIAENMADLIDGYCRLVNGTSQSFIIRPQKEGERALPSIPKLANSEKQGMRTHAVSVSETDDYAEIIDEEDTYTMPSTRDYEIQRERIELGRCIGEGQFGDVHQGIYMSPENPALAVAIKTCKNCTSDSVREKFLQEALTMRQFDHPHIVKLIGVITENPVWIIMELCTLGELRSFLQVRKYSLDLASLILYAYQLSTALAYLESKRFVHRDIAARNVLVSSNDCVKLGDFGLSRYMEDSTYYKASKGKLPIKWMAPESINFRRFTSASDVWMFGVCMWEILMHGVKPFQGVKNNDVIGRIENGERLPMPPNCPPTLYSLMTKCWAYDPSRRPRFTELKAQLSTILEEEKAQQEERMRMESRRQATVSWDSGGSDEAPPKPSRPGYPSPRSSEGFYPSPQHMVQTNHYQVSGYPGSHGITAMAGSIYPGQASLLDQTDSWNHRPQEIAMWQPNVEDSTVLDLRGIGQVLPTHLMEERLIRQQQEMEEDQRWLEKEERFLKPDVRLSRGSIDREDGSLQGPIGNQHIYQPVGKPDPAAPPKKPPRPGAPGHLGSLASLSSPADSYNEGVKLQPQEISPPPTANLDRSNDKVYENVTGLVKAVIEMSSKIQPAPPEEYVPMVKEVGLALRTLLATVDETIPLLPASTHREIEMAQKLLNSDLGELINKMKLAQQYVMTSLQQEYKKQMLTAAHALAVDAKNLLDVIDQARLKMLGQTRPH
UniProt Q13671: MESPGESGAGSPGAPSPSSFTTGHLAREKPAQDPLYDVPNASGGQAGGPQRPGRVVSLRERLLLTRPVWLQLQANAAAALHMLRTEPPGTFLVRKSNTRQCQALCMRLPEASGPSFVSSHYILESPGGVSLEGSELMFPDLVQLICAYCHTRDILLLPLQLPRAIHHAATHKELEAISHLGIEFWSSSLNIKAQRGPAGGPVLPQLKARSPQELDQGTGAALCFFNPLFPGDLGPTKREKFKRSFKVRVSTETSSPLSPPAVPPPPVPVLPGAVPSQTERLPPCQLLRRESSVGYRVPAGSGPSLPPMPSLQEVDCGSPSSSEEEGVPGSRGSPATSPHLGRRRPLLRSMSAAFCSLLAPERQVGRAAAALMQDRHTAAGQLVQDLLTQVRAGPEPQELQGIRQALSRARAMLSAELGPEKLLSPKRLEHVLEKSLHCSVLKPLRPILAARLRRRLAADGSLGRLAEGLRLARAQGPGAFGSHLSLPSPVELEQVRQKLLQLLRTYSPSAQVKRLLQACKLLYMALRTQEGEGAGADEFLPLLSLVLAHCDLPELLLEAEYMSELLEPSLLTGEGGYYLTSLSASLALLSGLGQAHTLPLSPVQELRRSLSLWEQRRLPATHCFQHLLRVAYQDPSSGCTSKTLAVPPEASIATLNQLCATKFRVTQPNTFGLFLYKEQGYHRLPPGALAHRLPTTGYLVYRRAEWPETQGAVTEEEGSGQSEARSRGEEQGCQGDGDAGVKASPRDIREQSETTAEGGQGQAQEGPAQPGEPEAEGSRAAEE
UniProt Q9UJ41: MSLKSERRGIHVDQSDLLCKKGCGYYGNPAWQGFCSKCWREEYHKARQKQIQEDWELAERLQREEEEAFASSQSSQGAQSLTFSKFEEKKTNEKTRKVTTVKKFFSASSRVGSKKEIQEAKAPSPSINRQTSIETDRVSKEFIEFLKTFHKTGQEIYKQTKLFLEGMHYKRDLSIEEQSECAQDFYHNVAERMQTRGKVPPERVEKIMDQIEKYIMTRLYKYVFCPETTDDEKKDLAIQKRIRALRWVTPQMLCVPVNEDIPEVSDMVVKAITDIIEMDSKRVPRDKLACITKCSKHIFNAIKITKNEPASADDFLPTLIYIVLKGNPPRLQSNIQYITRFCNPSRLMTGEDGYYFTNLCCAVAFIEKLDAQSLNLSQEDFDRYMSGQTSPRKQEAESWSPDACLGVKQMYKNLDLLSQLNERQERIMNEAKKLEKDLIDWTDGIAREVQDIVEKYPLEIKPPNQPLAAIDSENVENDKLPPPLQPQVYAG
UniProt P05556: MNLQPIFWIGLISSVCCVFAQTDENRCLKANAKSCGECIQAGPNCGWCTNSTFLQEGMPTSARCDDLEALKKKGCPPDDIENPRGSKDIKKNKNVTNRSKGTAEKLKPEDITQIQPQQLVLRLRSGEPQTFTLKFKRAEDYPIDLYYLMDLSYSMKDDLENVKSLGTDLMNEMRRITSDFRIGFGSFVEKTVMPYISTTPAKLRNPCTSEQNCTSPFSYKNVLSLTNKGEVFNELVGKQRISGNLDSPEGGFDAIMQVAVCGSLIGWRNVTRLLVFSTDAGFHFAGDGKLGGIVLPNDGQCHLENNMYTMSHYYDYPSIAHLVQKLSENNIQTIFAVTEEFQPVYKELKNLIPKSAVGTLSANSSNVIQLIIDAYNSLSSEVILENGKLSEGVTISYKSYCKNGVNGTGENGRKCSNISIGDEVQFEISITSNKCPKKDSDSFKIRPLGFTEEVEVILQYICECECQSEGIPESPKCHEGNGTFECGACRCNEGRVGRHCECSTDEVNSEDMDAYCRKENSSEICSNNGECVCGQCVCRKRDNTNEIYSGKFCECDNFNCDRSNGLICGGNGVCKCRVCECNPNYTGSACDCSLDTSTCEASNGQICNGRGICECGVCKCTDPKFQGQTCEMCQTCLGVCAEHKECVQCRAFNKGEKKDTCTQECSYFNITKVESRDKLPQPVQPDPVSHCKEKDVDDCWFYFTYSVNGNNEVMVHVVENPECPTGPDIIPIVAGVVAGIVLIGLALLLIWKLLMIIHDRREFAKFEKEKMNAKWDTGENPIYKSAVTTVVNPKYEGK

target: shank2 (bait of the mass spectrometric search for shank2-interacting proteins) (UniProt Q9QX74); assay: affinity purification with mass spectrometry

binding, binds:
EEA1 (from UniProt Q15075 1-1411), FAK (endogenous) (from UniProt Q05397 1-1052) (enzyme), RIN1 (endogenous) (from UniProt Q13671 1-783), Rabex5 (endogenous) (from UniProt Q9UJ41 1-491) (enzyme), cortactin (endogenous) (from UniProt Q14247 1-550), β1-integrin (from UniProt P05556 21-798) (receptor)
